The other results are listed elsewhere or left out.
Columns and labels:
Assay in all cases: glycan array binding signal (z-score within array); higher = stronger binding
Conditions in all cases: glycan notation: IUPAC condensed, linker removed
[1] = molecular target: Fuc(a1-2)Gal(b1-4)GlcNAc(b1-3)Gal(b1-4)GlcNAc(b1-3)Gal(b1-4)GlcNAc
Outline: (§1)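 The binding signal is a Z-score computed within each array and averaged over linkers. Arrays of the same protein sequence at different concentrations or buffers were also averaged together. Data originate from 3228 arrays in the Consortium for Functional Glycomics database, kept only where the protein sequence was available.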

[2] = molecular target: Fuc(a1-2)Gal(b1-4)GlcNAc(b1-3)GalNAc
Outline: as §1

[3] = molecular target: Fuc(a1-2)Gal(b1-4)GlcNAc(b1-3)[Fuc(a1-2)Gal(b1-4)GlcNAc(b1-6)]GalNAc
Outline: as §1

[4] = molecular target: Fuc(a1-2)Gal(b1-4)GlcNAc(b1-3)[Fuc(a1-3)[Gal(b1-4)]GlcNAc(b1-6)]Gal(b1-4)Glc
Outline: as §1

[5] = molecular target: Fuc(a1-2)Gal(b1-4)GlcNAc(b1-6)GalNAc
Outline: as §1

[6] = molecular target: Fuc(a1-2)Gal(b1-4)GlcNAc6S
Outline: as §1

[7] = molecular target: Fuc(a1-2)Gal(b1-4)[Fuc(a1-3)]GlcNAc
Outline: as §1

[8] = molecular target: Fuc(a1-2)Gal(b1-4)[Fuc(a1-3)]GlcNAc(b1-2)Man(a1-3)[Fuc(a1-2)Gal(b1-4)[Fuc(a1-3)]GlcNAc(b1-2)Man(a1-6)]Man(b1-4)GlcNAc(b1-4)[Fuc(a1-6)]GlcNAc
Outline: as §1

[9] = molecular target: Fuc(a1-2)Gal(b1-4)[Fuc(a1-3)]GlcNAc(b1-2)[Fuc(a1-2)Gal(b1-4)[Fuc(a1-3)]GlcNAc(b1-4)]Man(a1-3)[Fuc(a1-2)Gal(b1-4)[Fuc(a1-3)]GlcNAc(b1-2)Man(a1-6)]Man(b1-4)GlcNAc(b1-4)GlcNAc
Outline: as §1

[10] = molecular target: Fuc(a1-2)Gal(b1-4)[Fuc(a1-3)]GlcNAc(b1-3)Gal(b1-4)[Fuc(a1-3)]GlcNAc
Outline: as §1

[11] = molecular target: Fuc(a1-2)Gal(b1-4)[Fuc(a1-3)]GlcNAc(b1-3)Gal(b1-4)[Fuc(a1-3)]GlcNAc(b1-3)Gal(b1-4)[Fuc(a1-3)]GlcNAc
Outline: as §1

[12] = molecular target: Fuc(a1-2)Gal(b1-4)[Fuc(a1-3)]GlcNAc(b1-3)GalNAc
Outline: as §1

[13] = molecular target: Fuc(a1-2)Gal(b1-4)[Fuc(a1-3)]GlcNAc(b1-3)[Neu5Ac(a2-6)Gal(b1-4)GlcNAc(b1-6)]Gal(b1-4)Glc
Outline: as §1

[14] = molecular target: Fuc(a1-2)Gal3S(b1-4)GlcNAc
Outline: as §1

[15] = molecular target: Fuc(a1-2)Gal6S(b1-3)GlcNAc
Outline: as §1

[16] = molecular target: Fuc(a1-2)Gal6S(b1-3)GlcNAc6S
Outline: as §1

Fuc(a1-2)Gal6S(b1-4)Glc = molecular target: Fuc(a1-2)Gal6S(b1-4)Glc
Outline: as §1

[17] = molecular target: Fuc(a1-2)Gal6S(b1-4)Glc6S
Outline: as §1

Fuc(a1-2)[Gal(a1-3)]Gal = molecular target: Fuc(a1-2)[Gal(a1-3)]Gal
Outline: as §1

[18] = molecular target: Fuc(a1-2)[Gal(a1-3)]Gal(b1-3)GalNAc
Outline: as §1

[19] = molecular target: Fuc(a1-2)[Gal(a1-3)]Gal(b1-3)GalNAc(b1-3)Gal(a1-4)Gal(b1-4)Glc
Outline: as §1

[20] = molecular target: Fuc(a1-2)[Gal(a1-3)]Gal(b1-3)GlcNAc
Outline: as §1

[21] = molecular target: Fuc(a1-2)[Gal(a1-3)]Gal(b1-3)GlcNAc(b1-2)Man(a1-3)[Fuc(a1-2)[Gal(a1-3)]Gal(b1-3)GlcNAc(b1-2)Man(a1-6)]Man(b1-4)GlcNAc(b1-4)GlcNAc
Outline: as §1

[22] = molecular target: Fuc(a1-2)[Gal(a1-3)]Gal(b1-3)GlcNAc(b1-2)Man(a1-3)[Fuc(a1-2)[Gal(a1-3)]Gal(b1-3)GlcNAc(b1-2)Man(a1-6)]Man(b1-4)GlcNAc(b1-4)[Fuc(a1-6)]GlcNAc
Outline: as §1

[23] = molecular target: Fuc(a1-2)[Gal(a1-3)]Gal(b1-3)GlcNAc(b1-3)GalNAc
Outline: as §1

[24] = molecular target: Fuc(a1-2)[Gal(a1-3)]Gal(b1-3)GlcNAc(b1-6)GalNAc
Outline: as §1

[25] = molecular target: Fuc(a1-2)[Gal(a1-3)]Gal(b1-4)Glc
Outline: as §1

[26] = molecular target: Fuc(a1-2)[Gal(a1-3)]Gal(b1-4)GlcNAc
Outline: as §1

[27] = molecular target: Fuc(a1-2)[Gal(a1-3)]Gal(b1-4)GlcNAc(b1-2)Man
Outline: as §1

[28] = molecular target: Fuc(a1-2)[Gal(a1-3)]Gal(b1-4)GlcNAc(b1-2)Man(a1-3)[Fuc(a1-2)[Gal(a1-3)]Gal(b1-4)GlcNAc(b1-2)Man(a1-6)]Man(b1-4)GlcNAc(b1-4)GlcNAc
Outline: as §1

[29] = molecular target: Fuc(a1-2)[Gal(a1-3)]Gal(b1-4)GlcNAc(b1-2)Man(a1-3)[Fuc(a1-2)[Gal(a1-3)]Gal(b1-4)GlcNAc(b1-2)Man(a1-6)]Man(b1-4)GlcNAc(b1-4)[Fuc(a1-6)]GlcNAc
Outline: as §1

[30] = molecular target: Fuc(a1-2)[Gal(a1-3)]Gal(b1-4)GlcNAc(b1-3)GalNAc
Outline: as §1

[31] = molecular target: Fuc(a1-2)[Gal(a1-3)]Gal(b1-4)GlcNAc(b1-3)[Fuc(a1-2)[Gal(a1-3)]Gal(b1-4)GlcNAc(b1-6)]GalNAc
Outline: as §1

[32] = molecular target: Fuc(a1-2)[Gal(a1-3)]Gal(b1-4)GlcNAc(b1-6)GalNAc
Outline: as §1

[33] = molecular target: Fuc(a1-2)[Gal(a1-3)]Gal(b1-4)[Fuc(a1-3)]Glc
Outline: as §1

[34] = molecular target: Fuc(a1-2)[Gal(a1-3)]Gal(b1-4)[Fuc(a1-3)]GlcNAc
Outline: as §1

[35] = molecular target: Fuc(a1-2)[Gal(a1-3)]Gal(b1-4)[Fuc(a1-3)]GlcNAc(b1-3)GalNAc
Outline: as §1

[36] = molecular target: Fuc(a1-2)[Gal(a1-4)]Gal(b1-4)GlcNAc
Outline: as §1

[37] = molecular target: Fuc(a1-2)[GalNAc(a1-3)]Gal
Outline: as §1

[38] = molecular target: Fuc(a1-2)[GalNAc(a1-3)]Gal(b1-3)GalNAc(a1-3)[Fuc(a1-2)]Gal(b1-4)GlcNAc
Outline: as §1

[39] = molecular target: Fuc(a1-2)[GalNAc(a1-3)]Gal(b1-3)GalNAc(b1-3)Gal(a1-4)Gal(b1-4)Glc
Outline: as §1

[40] = molecular target: Fuc(a1-2)[GalNAc(a1-3)]Gal(b1-3)GlcNAc
Outline: as §1

[41] = molecular target: Fuc(a1-2)[GalNAc(a1-3)]Gal(b1-3)GlcNAc(b1-2)Man(a1-3)[Fuc(a1-2)[GalNAc(a1-3)]Gal(b1-3)GlcNAc(b1-2)Man(a1-6)]Man(b1-4)GlcNAc(b1-4)GlcNAc
Outline: as §1

[42] = molecular target: Fuc(a1-2)[GalNAc(a1-3)]Gal(b1-3)GlcNAc(b1-2)Man(a1-3)[Fuc(a1-2)[GalNAc(a1-3)]Gal(b1-3)GlcNAc(b1-2)Man(a1-6)]Man(b1-4)GlcNAc(b1-4)[Fuc(a1-6)]GlcNAc
Outline: as §1

[43] = molecular target: Fuc(a1-2)[GalNAc(a1-3)]Gal(b1-3)GlcNAc(b1-3)GalNAc
Outline: as §1

B1: Pwp1 (Candida glabrata) (protein)
chain: MGSSHHHHHHSSGLVPRGSHMASANPISITNVCQFPDNWARTAGFQATTVRLGLTIASNTYKELLNYPGLFNFATQKATVTQPNFSISGFPFFTGLYGLTVWPINLLVELQGYFVPPESGNYTFTLQGSDDAAILFFANPSTFACGSQNDWPQPREADITVTDTLVPSRTLYLVKGVAYPIRIAYYNGSGDGKLNVSFKDPSGTTHTDWKGYVWQYSNTCSTCTYT
glycan array binding signal (z-score) [1]: 0.308 | glycan array binding signal (z-score) [2]: -0.125 | glycan array binding signal (z-score) [3]: 0.026 | glycan array binding signal (z-score) [4]: -0.159 | glycan array binding signal (z-score) [5]: -1.29 | glycan array binding signal (z-score) [6]: 0.741 | glycan array binding signal (z-score) [7]: 0.777 | glycan array binding signal (z-score) [8]: 0.92 | glycan array binding signal (z-score) [9]: 0.256 | glycan array binding signal (z-score) [10]: -0.684 | glycan array binding signal (z-score) [11]: -1.96 | glycan array binding signal (z-score) [12]: 0.873 | glycan array binding signal (z-score) [13]: 0.323 | glycan array binding signal (z-score) [14]: 0.714 | glycan array binding signal (z-score) [15]: 0.863 | glycan array binding signal (z-score) [16]: 0.114 | glycan array binding signal (z-score) (Fuc(a1-2)Gal6S(b1-4)Glc): -0.845 | glycan array binding signal (z-score) [17]: 0.762 | glycan array binding signal (z-score) (Fuc(a1-2)[Gal(a1-3)]Gal): -0.123 | glycan array binding signal (z-score) [18]: 1.05 | glycan array binding signal (z-score) [19]: -0.81 | glycan array binding signal (z-score) [20]: 1.08 | glycan array binding signal (z-score) [21]: -0.014 | glycan array binding signal (z-score) [22]: 0.125 | glycan array binding signal (z-score) [23]: 0.778 | glycan array binding signal (z-score) [24]: 0.51 | glycan array binding signal (z-score) [25]: -0.087 | glycan array binding signal (z-score) [26]: 0.138 | glycan array binding signal (z-score) [27]: 0.504 | glycan array binding signal (z-score) [28]: -1.83 | glycan array binding signal (z-score) [29]: 0.301 | glycan array binding signal (z-score) [30]: 0.373 | glycan array binding signal (z-score) [31]: -0.015 | glycan array binding signal (z-score) [32]: 0.962 | glycan array binding signal (z-score) [33]: 0.655 | glycan array binding signal (z-score) [34]: 0.505 | glycan array binding signal (z-score) [35]: -1.08 | glycan array binding signal (z-score) [36]: 1.53 | glycan array binding signal (z-score) [37]: 0.235 | glycan array binding signal (z-score) [38]: -0.318 | glycan array binding signal (z-score) [39]: 1.29 | glycan array binding signal (z-score) [40]: -1.26 | glycan array binding signal (z-score) [41]: 0.762 | glycan array binding signal (z-score) [42]: 1.16 | glycan array binding signal (z-score) [43]: 2.44

— the supplement of paper PMC8728848
